Laboratory results: PubChem BioAssay AID1671195 (Yale University, 2021)
Here is an unselected part of about 22,000 deposited reagents. Of all reagents, about 1,510 (6.9%) are marked active. 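Active includes knockdowns raising or lowering LDL uptake; positive z-scores mean more uptake, negative mean less.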 Entries without a mark were called inactive. Reagent sequences are not shown.

- Aim: 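Genes whose knockdown alters LDL uptake in liver cancer cells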 (primary screen)
- System: human Huh7 hepatoma cells
- Reagents: siRNA pool against human genes, 18 nM
- Duration: about 2 to 2.5 days of knockdown, then 8 h LDL uptake
- Conditions: DiI-labelled LDL at 30 µg/ml for 8 h, in lipoprotein-deficient serum medium
- Measured: 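Per-cell DiI-LDL intensity by automated imaging; well means scaled to the plate median and given as a robust z-score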
- Direction: robust z-score: higher = more LDL uptake after knockdown
- Active means: 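a gene counts as active if at least two replicate z-scores exceed ±2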

| Target gene | robust z-score, replicate 1 | robust z-score, replicate 2 | robust z-score, replicate 3 |
| --- | --- | --- | --- |
| LOC401068 (retired record) (GeneID 401068) | -0.316 | 1.08 | -0.317 |
| NMU (GeneID 10874) | 0.661 | 1.11 | 0.249 |
| LOC440835 (retired record) (GeneID 440835) | 0.409 | 0.247 | 0.488 |
| NR6A1 (GeneID 2649) | 0.465 | 1.1 | 0.777 |
| CAMK2B (GeneID 816) | -0.261 | -0.473 | 0.455 |
| JPH2 (GeneID 57158) | -0.105 | 0.281 | -0.852 |
| CFAP70 (GeneID 118491) | 0.36 | 0.254 | 0.334 |
| PEG10 (GeneID 23089) | -1.04 | -1.3 | 0.213 |
| PTK2B (GeneID 2185) | 0.63 | -0.494 | 0.475 |
| PI4KA (GeneID 5297) | -0.307 | 0.514 | -0.126 |
| LLGL2 (GeneID 3993) | 0.514 | -0.00736 | -0.665 |
| CASC3 (GeneID 22794) | 1.52 | -0.457 | 1.03 |
| VPS35L (GeneID 57020) | -0.12 | 0.673 | -0.268 |
| LOC400847 (retired record) (GeneID 400847) | -0.614 | -0.774 | -0.399 |
| CACNG7 (GeneID 59284) | -0.308 | -0.705 | -0.00144 |
| CBX7 (GeneID 23492) | 2.79 (active) | 5.15 | 3.43 |
| KCNA10 (GeneID 3744) | -0.174 | 0.666 | -0.636 |
| SAMD10 (GeneID 140700) | -0.812 | -0.432 | -1.43 |
| OXR1 (GeneID 55074) | 0.196 | -0.405 | 1.33 |
| SMG8 (GeneID 55181) | -0.221 | -0.496 | 0.953 |
| COPS8 (GeneID 10920) | 4.67 (active) | 2.58 | 4.51 |
| SESN1 (GeneID 27244) | 1.09 | -1 | 1.49 |
| OR2V2 (GeneID 285659) | 0.326 | 0.21 | 1.47 |

Continued, starting with the last 5 of the part before.
| Target gene | robust z-score, replicate 1 | robust z-score, replicate 2 | robust z-score, replicate 3 |
| --- | --- | --- | --- |
| OXR1 (GeneID 55074) | 0.196 | -0.405 | 1.33 |
| SMG8 (GeneID 55181) | -0.221 | -0.496 | 0.953 |
| COPS8 (GeneID 10920) | 4.67 (active) | 2.58 | 4.51 |
| SESN1 (GeneID 27244) | 1.09 | -1 | 1.49 |
| OR2V2 (GeneID 285659) | 0.326 | 0.21 | 1.47 |
| APOD (GeneID 347) | -0.917 | -0.442 | -0.425 |
| ECI2 (GeneID 10455) | 0.984 | -0.892 | 0.0381 |
| LOC440996 (retired record) (GeneID 440996) | 0.289 | 1.25 | 0.903 |
| ARHGAP6 (GeneID 395) | -0.65 | -0.335 | -1.17 |
| CASQ2 (GeneID 845) | -1.37 | -0.939 | -0.914 |
| RTP1 (GeneID 132112) | 0.149 | 0.216 | 0.665 |
| POLD3 (GeneID 10714) | 0.619 | -1.02 | -0.549 |
| ZC3HAV1 (GeneID 56829) | -0.69 | 0.527 | 0.0578 |
| MELK (GeneID 9833) | 0.286 | 0.702 | 0.181 |
| OR51D1 (GeneID 390038) | 0.565 | 0.544 | 0.431 |
| PITX2 (GeneID 5308) | -0.133 | -0.858 | 0.548 |
| TSN (GeneID 7247) | -0.029 | -0.248 | -0.222 |
| TPT1 (GeneID 7178) | -0.282 | -0.994 | -0.44 |
| TSPAN33 (GeneID 340348) | -0.756 | -0.97 | -1.03 |
| OMD (GeneID 4958) | -0.86 | -0.33 | -0.687 |
| SIGLEC5 (GeneID 8778) | 1.12 | -0.127 | 0.473 |
| LOC440095 (retired record) (GeneID 440095) | 1.16 | 0.931 | 0.552 |
| GUCA1B (GeneID 2979) | 1.5 (active) | 2.07 | 4.38 |
| LOC441503 (retired record) (GeneID 441503) | 0.199 | 0.158 | 0.258 |
| LOC100288208 (GeneID 100288208) | 2.28 | 1.62 | 1.13 |
| SLC25A33 (GeneID 84275) | 0.404 | 0.853 | 0.776 |
| SMAD5 (GeneID 4090) | -0.229 | 0.0769 | -0.214 |
| CCDC85B (GeneID 11007) | 3.15 (active) | 3.48 | 3.19 |
| ZNF473CR (GeneID 400710) | 0.33 | 0.338 | 0.217 |
| PPM1G (GeneID 5496) | -0.108 | 0.272 | 0.169 |
| LOC440778 (retired record) (GeneID 440778) | 0.774 | 0.54 | 0.56 |
| FCER2 (GeneID 2208) | -0.59 | -1.09 | -0.00198 |
| CYP2B6 (GeneID 1555) | 1.55 | 1.36 | 1.26 |
| RNH1 (GeneID 6050) | -0.221 | -0.213 | 0.145 |
| ZNF324B (GeneID 388569) | -1.41 | -1.3 | -0.774 |
| OR5K1 (GeneID 26339) | 1.5 | 1.92 | 1.84 |
| PPP2R1B (GeneID 5519) | -0.245 | -0.663 | 0.0204 |
| OTUB1 (GeneID 55611) | -0.636 | -1.06 | -0.551 |
| SPINT2 (GeneID 10653) | 0.244 | -0.999 | -1.21 |
| SIRAL2 (GeneID 55007) | -0.718 | 1.32 | -0.456 |
| CHRNA2 (GeneID 1135) | -1.13 | -1.21 | -1.04 |
| NUP50 (GeneID 10762) | -0.0119 | 0.0525 | -1.35 |
| SPAG1 (GeneID 6674) | 0.509 | 0.0298 | -0.00641 |
| COX5A (GeneID 9377) | -0.14 | 0.307 | -0.172 |
| ABCG2 (GeneID 9429) | 0.514 | 0.644 | -0.105 |
| LOC441075 (retired record) (GeneID 441075) | -0.744 | -0.598 | -0.458 |
| TAF1B (GeneID 9014) | 1.48 | -0.154 | -0.127 |
| HSPB2 (GeneID 3316) | 1.9 (active) | 2.06 | 1.94 |
| GNPDA2 (GeneID 132789) | -0.0255 | 0.885 | -0.225 |
| CLDN6 (GeneID 9074) | 1.69 | 0.965 | 1.61 |
